No constants are given. Whether binding was seen depends on the method and setting. Binding seen in cells or lysates may run through a third protein. A result given as binding can be weak or reduced; the word gives no strength. Where a sequence is shown, tags or fusion partners need not be part of it.
Key:
Test in all cases: pull-down; GST-fusion containing E. coli lysates bound to GST resin (4 °C, 1 h), then incubated with His-tagged CD151 containing lysate overnight at 4 °C; 3 washes with lysis buffer; eluted with 20 mM reduced glutathione; Western blot with anti-GST and anti-His; only the target purified
GST-tagged LGR5 = molecular target: GST-tagged LGR5
GST-tagged CEACAM6 = molecular target: GST-tagged CEACAM6
GST-tagged TGFβ1 = molecular target: GST-tagged TGFβ1

Measured: binding

B1: His-tagged CD151 (protein, UniProt P48509 1-253)
chain: MGEFNEKKTTCGTVCLKYLLFTYNCCFWLAGLAVMAVGIWTLALKSDYISLLASGTYLATAYILVVAGTVVMVTGVLGCCATFKERRNLLRLYFILLLIIFLLEIIAGILAYAYYQQLNTELKENLKDTMTKRYHQPGHEAVTSAVDQLQQEFHCCGSNNSQDWRDSEWIRSQEAGGRVVPDSCCKTVVALCGQRDHASNIYKVEGGCITKLETFIQEHLRVIGAVGIGIACVQVFGMIFTCCLYRSLKLEHY
binds: all assays above
